This data set has as its system cancer samples from TCGA. Description: RNA expression of MAP-coding sequences in TCGA cancer samples (RPHM). On the set-up: species or system human. Particulars: MCS expression in TCGA cancer types.

The expression values are mRNA levels of the gene; the protein chain is shown to identify it.

As for “ISMCDLVY (listed as Homo sapiens) [paMAP]”, the “Number of cancer types with >= 10% samples above 2 RPHM” value (Table 1B, paMAPs) worked out at 0.
As for “LPSGETIAKW (listed as Homo sapiens) [paMAP]”, under “Table 1B, paMAPs”, the “Number of cancer types with >= 10% samples above 2 RPHM” value is recorded as 7.
Consider “MAWNGILHL (listed as Homo sapiens) [saMAP]”, for which the “Number of cancer types with >= 10% samples above 2 RPHM” value (Table 1D, saMAPs) was found to be 1.
The same measure, in the same setting: the value for “ALLEGVNTV (listed as Homo sapiens) [previously reported saMAP]” was 3.
As to “QPLPQPLELW (listed as Homo sapiens) [paMAP]”, under “Table 1B, paMAPs”, the “Number of cancer types with >= 10% samples above 2 RPHM” value was 6.
As to “ALLEGVNTVVV (listed as Homo sapiens) [saMAP]”, for the setting “Table 1D, saMAPs”, the “Number of cancer types with >= 10% samples above 2 RPHM” value worked out at 3.
For the sequence “GQFDRPAGV (listed as Homo sapiens) [paMAP]”, where the note is “Table 1B, paMAPs”, the “Number of cancer types with >= 10% samples above 2 RPHM” value amounted to 3.
Turning to “KQFEGTVEI (listed as Homo sapiens) [previously reported saMAP]”, the “Number of cancer types with >= 10% samples above 2 RPHM” value (Table 1D, saMAPs) turned out to be 17.
For the sequence “NTENYILWGY (listed as Homo sapiens) [paMAP]”, where the note is “Table 1B, paMAPs”, the “Number of cancer types with >= 10% samples above 2 RPHM” value is reported as 2.
Still for that read-out and setting: the value for “YSDQKPPYSY (listed as Homo sapiens) [paMAP]” was 5; that for “GLYDGREHSV (listed as Homo sapiens) [previously reported paMAP]” was 1; that for “SKLRSTGQSF (listed as Homo sapiens) [paMAP]” was 1.
Take “NTLSESYIY (listed as Homo sapiens) [paMAP]”: the “Number of cancer types with >= 10% samples above 2 RPHM” value (Table 1B, paMAPs) is 3.
“GQFLVKSGY (listed as Homo sapiens) [saMAP]”: the “Number of cancer types with >= 10% samples above 2 RPHM” value (Table 1D, saMAPs) is 12.
“FAYPNQKVTF (listed as Homo sapiens) [paMAP]”: the “Number of cancer types with >= 10% samples above 2 RPHM” value (Table 1B, paMAPs) is given as 2.
On to “AKKKENITY (listed as Homo sapiens) [paMAP]”, for which the “Number of cancer types with >= 10% samples above 2 RPHM” value (Table 1B, paMAPs) stood at 4.
With “NPIGDTGVKF (listed as Homo sapiens) [previously reported paMAP]”, for the setting “Table 1B, paMAPs”, the “Number of cancer types with >= 10% samples above 2 RPHM” value is 10.
With “SETHPPEVAL (listed as Homo sapiens) [saMAP]”, the “Number of cancer types with >= 10% samples above 2 RPHM” value (Table 1D, saMAPs) was 3.
For “YTPFPSYGHY (listed as Homo sapiens) [paMAP]”, under “Table 1B, paMAPs”, the “Number of cancer types with >= 10% samples above 2 RPHM” value is listed as 1.
For “AMYHALEKA (listed as Homo sapiens) [saMAP]”, the “Number of cancer types with >= 10% samples above 2 RPHM” value (Table 1D, saMAPs) is reported as 24.
As for “KLDSYIIPY (listed as Homo sapiens) [paMAP]”, the “Number of cancer types with >= 10% samples above 2 RPHM” value (Table 1B, paMAPs) is reported as 1.
The same measure, in the same setting: the figure for “IPMKIYLW (listed as Homo sapiens) [paMAP]” is 4; for “GKLDNTNEY (listed as Homo sapiens) [paMAP]” it is 3.
With “TPSPIIQQL (listed as Homo sapiens) [previously reported saMAP]”, where the note is “Table 1D, saMAPs”, the “Number of cancer types with >= 10% samples above 2 RPHM” value came to 30.
Regarding “FAYPNQKDF (listed as Homo sapiens) [saMAP]”, where the note is “Table 1D, saMAPs”, the “Number of cancer types with >= 10% samples above 2 RPHM” value is on record as 3.
Regarding “FTEEDLHFVLY (listed as Homo sapiens) [paMAP]”, the “Number of cancer types with >= 10% samples above 2 RPHM” value (Table 1B, paMAPs) is listed as 1.
On the same count and under the same terms, the figure for “SLLGSSEILEV (listed as Homo sapiens) [paMAP]” is 1.
Turning to “RLWNETVELF (listed as Homo sapiens) [saMAP]”, the “Number of cancer types with >= 10% samples above 2 RPHM” value (Table 1D, saMAPs) is reported as 31.
Still for that read-out and setting: the figure for “SPQEASGVRW (listed as Homo sapiens) [saMAP]” is 3; for “ASTPASSEL (listed as Homo sapiens) [saMAP]” it is 25.
Same read-out and setting: the value for “SEVSADKLVAL (listed as Homo sapiens) [saMAP]” was 22.
Take “KLQEKIQEL (listed as Homo sapiens) [previously reported saMAP]”: the “Number of cancer types with >= 10% samples above 2 RPHM” value (Table 1D, saMAPs) is listed as 28.
Still for that read-out and setting: the value for “GKFQGLIEKF (listed as Homo sapiens) [saMAP]” was 29.
“KHFDSPRGVAF (listed as Homo sapiens) [paMAP]”: under “Table 1B, paMAPs”, the “Number of cancer types with >= 10% samples above 2 RPHM” value was 3.
Same read-out and setting: the value for “GQITHNTSF (listed as Homo sapiens) [paMAP]” was 9.
For the sequence “FLLPGVLLSEA (listed as Homo sapiens) [previously reported saMAP from UGT3A2]”, for the setting “Table 1D, saMAPs”, the “Number of cancer types with >= 10% samples above 2 RPHM” value is reported as 5.
Regarding “VTLSTYFHV (listed as Homo sapiens) [paMAP]”, the “Number of cancer types with >= 10% samples above 2 RPHM” value (Table 1B, paMAPs) worked out at 1.
For the sequence “SANVSKVSF (listed as Homo sapiens) [previously reported saMAP]”, the “Number of cancer types with >= 10% samples above 2 RPHM” value (Table 1D, saMAPs) is on record as 18.
Take “QPLPEPLQLW (listed as Homo sapiens) [paMAP]”: the “Number of cancer types with >= 10% samples above 2 RPHM” value (Table 1B, paMAPs) is recorded as 1.
The same measure, in the same setting: the figure for “SQSSLMLYL (listed as Homo sapiens) [paMAP]” is 0; for “VSDQQNGTY (listed as Homo sapiens) [paMAP]” it is 3.
Same read-out and setting: the value for “VLMDEGAVLTL (listed as Homo sapiens) [previously reported paMAP]” was 4; that for “LPMWKALLF (listed as Homo sapiens) [paMAP]” was 5; that for “YSIYPMRNL (listed as Homo sapiens) [paMAP]” was 2.
As for “HPLPGLILEW (listed as Homo sapiens) [saMAP]”, the “Number of cancer types with >= 10% samples above 2 RPHM” value (Table 1D, saMAPs) is 25.
Take “SQNSPIRY (listed as Homo sapiens) [paMAP]”: under “Table 1B, paMAPs”, the “Number of cancer types with >= 10% samples above 2 RPHM” value amounted to 0.
For the sequence “RLWNETVEL (listed as Homo sapiens) [previously reported saMAP]”, the “Number of cancer types with >= 10% samples above 2 RPHM” value (Table 1D, saMAPs) is reported as 32.
On to “ALYPQPPTV (listed as Homo sapiens) [paMAP]”, for which the “Number of cancer types with >= 10% samples above 2 RPHM” value (Table 1B, paMAPs) came to 2.
On the same count and under the same terms, the value for “VAKPPGTAF (listed as Homo sapiens) [paMAP]” was 0.
Regarding “QTELNNSKQEY (listed as Homo sapiens) [saMAP]”, for the setting “Table 1D, saMAPs”, the “Number of cancer types with >= 10% samples above 2 RPHM” value is reported as 23.
As to “FHSQNSPIRY (listed as Homo sapiens) [paMAP]”, the “Number of cancer types with >= 10% samples above 2 RPHM” value (Table 1B, paMAPs) is on record as 0.
As for “LALGNTKEL (listed as Homo sapiens) [previously reported saMAP]”, for the setting “Table 1D, saMAPs”, the “Number of cancer types with >= 10% samples above 2 RPHM” value turned out to be 8.
Turning to “GQKENVVVY (listed as Homo sapiens) [previously reported saMAP]”, the “Number of cancer types with >= 10% samples above 2 RPHM” value (Table 1D, saMAPs) came out at 23.
With “RTDTGKRVLY (listed as Homo sapiens) [paMAP]”, the “Number of cancer types with >= 10% samples above 2 RPHM” value (Table 1B, paMAPs) came to 0.
The same measure, in the same setting: the value for “KLAQIIRQV (listed as Homo sapiens) [paMAP]” was 5.
With “GEIKTFSDL (listed as Homo sapiens) [paMAP]”, where the note is “Table 1B, paMAPs”, the “Number of cancer types with >= 10% samples above 2 RPHM” value was 4.
Still for that read-out and setting: the figure for “YKRMKLDSY (listed as Homo sapiens) [paMAP]” is 7; for “RPARPPAGL (listed as Homo sapiens) [paMAP]” it is 5.
Take “YLLNCHLLI (listed as Homo sapiens) [saMAP]”: the “Number of cancer types with >= 10% samples above 2 RPHM” value (Table 1D, saMAPs) turned out to be 3.
Consider “KMSELQTYV (listed as Homo sapiens) [previously reported saMAP]”, for which the “Number of cancer types with >= 10% samples above 2 RPHM” value (Table 1D, saMAPs) stood at 32.
For the sequence “RLQHEPPHPV (listed as Homo sapiens) [paMAP]”, the “Number of cancer types with >= 10% samples above 2 RPHM” value (Table 1B, paMAPs) was 10.
Same read-out and setting: the figure for “EEEIHSPTL (listed as Homo sapiens) [paMAP]” is 2.
Same read-out and setting: the value for “MKFGNQVSGLF (listed as Homo sapiens) [paMAP]” was 1.
Still for that read-out and setting: the value for “GQAHPQGSF (listed as Homo sapiens) [paMAP]” was 4.
“KQMENDIQLY (listed as Homo sapiens) [saMAP]”: the “Number of cancer types with >= 10% samples above 2 RPHM” value (Table 1D, saMAPs) is on record as 22.
With “TASDLNLKV (listed as Homo sapiens) [previously reported paMAP]”, the “Number of cancer types with >= 10% samples above 2 RPHM” value (Table 1B, paMAPs) came to 3.
For “SAQGKPTYF (listed as Homo sapiens) [paMAP]”, the “Number of cancer types with >= 10% samples above 2 RPHM” value (Table 1B, paMAPs) came out at 2.
Same read-out and setting: the figure for “GEHLVSVTL (listed as Homo sapiens) [paMAP]” is 3.
Take “FGDGKFSEV (listed as Homo sapiens) [saMAP]”: the “Number of cancer types with >= 10% samples above 2 RPHM” value (Table 1D, saMAPs) is reported as 28.

The values are drawn from US20240382590A1, “NOVEL TUMOR-SPECIFIC ANTIGENS FOR CANCER STEM CELLS AND USES THEREOF” (UNIVERSITÉ DE MONTRÉAL, priority 2021, published 2024).
